This note sets out measurements from the supplement of paper PMC8616043.

Structures can show the parent of a compound that is named as a salt. The list shows a part of the results. Repeats in this data set agree poorly, so a single value says little.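 PR50, a 50-repeat proline–arginine dipeptide protein from C9ORF72 (ALS/FTD), was expressed by transfection in U-2 OS human cells stably carrying a GFP sensor with import and classical export signals. Per-well nuclear-minus-cytoplasm GFP, normalized between in-plate DMSO (low) and PR-only (high), was scored versus other test wells; compounds well below zero were hits reversing PR.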

The test has as its system U-2 OS NCT-C biosensor cells expressing PR50. Put plainly: Z-score of normalised NCT-C biosensor translocation index in PR50-expressing cells; higher = more nuclear biosensor (more disrupted nuclear export). As to conditions: 3 µM; 24 h.
As to `CC1=NCCc2c1[nH]c1cc(O)ccc21` [Harmalol·HCl·2H2O], the Z-score is inactive: -0.302. Take `C=C[C@H]1CN2CC[C@H]1C[C@H]2[C@H](O)c1ccnc2ccccc12` [(-)-Cinchonidine]: the Z-score was inactive: 0.198. Regarding `COc1ccc2c(c1)[C@]13CCCC[C@@H]1[C@H](C2)N(C)CC3` [Dextromethorphan], the Z-score was inactive: 0.354.

On to `COC[C@H]1OC(=O)c2coc3c2[C@@]1(C)C1=C(C3=O)[C@@H]2CCC(=O)[C@@]2(C)C[C@H]1OC(C)=O` [Wortmannin from Penicillium funiculosum], for which the Z-score was inactive: -0.385. In the case of `Clc1cnc(Oc2ccc(Oc3ncc(Cl)cc3Cl)cc2)c(Cl)c1`, the Z-score was inactive: -0.966. Take `C=C[C@H]1CN2CC[C@H]1C[C@@H]2[C@@H](O)c1ccnc2ccccc12` [(+)-Cinchonine]: the Z-score was inactive: -0.52. In the case of `CC(Cc1ccc(O)cc1)NCC(O)c1cc(O)cc(O)c1` (stereo not given) [Fenoterol hydrobromide] it was inactive: -1.06; in that of `C1CCc2nnnn2CC1` [Pentylenetetrazole], inactive: 0.408.

Regarding `Cn1cnc(CCN)c1` [1-Methylhistamine dihydrochloride], the Z-score is inactive: -0.679.

On to `OC[C@@H]1CCCN2CCCC[C@H]12` [Lupinine], for which the Z-score was inactive: -0.166. With `CCCN1CCC[C@@H]2Cc3nc(N)ncc3C[C@H]21` [Quinelorane dihydrochloride] the figure was inactive: 0.351. For the compound `CNCC(O)c1ccc(O)cc1` (racemic) [(+-)-Synephrine], the Z-score was inactive: -1.01.

Consider `COCCCn1c(N)c(C(=O)NC2CCCC2)c2nc3ccccc3nc21`, for which the Z-score was inactive: -1.84. Regarding `CC(C)=CCCC1=CC(=O)c2c(O)ccc(O)c2C1=O` [Deoxyshikonin], the Z-score is inactive: 0.806. Regarding `O=c1[nH]c2ccccc2n1CCCN1CCC(n2c(=O)[nH]c3cc(Cl)ccc32)CC1` [Domperidone], the Z-score is inactive: -1.08.

In the case of `COc1ccc(CCNCc2ccc(OC)c3ccccc23)cc1`, the Z-score was inactive: -0.416. Consider `C[C@H]1CCC[C@@H](O)CCCCCc2cc(O)cc(O)c2C(=O)O1` [β-Zearalanol], for which the Z-score is inactive: 0.509. On to `CC(C)(C)c1cc(C(C)(C)C)c2c(c1)C(O)(C(F)(F)F)C(=O)O2` (racemic), for which the Z-score was inactive: 0.161. For `CN1[C@@H]2CCC[C@H]1CC(=O)C2` [Pseudopelletierine·HCl], the Z-score is inactive: 0.0175. With `N[C@@H](Cn1oc(=O)[nH]c1=O)C(=O)O` [Quisqualic acid], the Z-score is inactive: -0.349. In the case of `N[C@@H](Cn1oc(=O)[nH]c1=O)C(=O)O` [(+)-Quisqualic acid] it was inactive: 0.318; in that of `NC(N)=NOCC[C@H](N)C(=O)O` [L-Canavanine sulfate], inactive: -0.651. In the case of `NC(N)=NOCC[C@H](N)C(=O)O` [L-Canavanine] it was inactive: 1.28; in that of `S=C(NC1CCCCC1)N1CCC(c2cnc[nH]2)CC1` [Thioperamide maleate], inactive: -0.635.

On to `CCCC(=O)O[C@@H]1[C@@H](C)[C@@]2(O)[C@@H](C=C(CO)C[C@]3(O)C(=O)C(C)=C[C@@H]23)[C@@H]2C(C)(C)[C@]12OC(=O)CCC` [Phorbol 12,13-dibutyrate], for which the Z-score was inactive: 0.682. `C=C(C)[C@H]1CN[C@H](C(=O)O)[C@H]1CC(=O)O` [Kainic acid]: the Z-score was inactive: -0.0179. Take `O=C(N[C@H]1CN2CCC1CC2)c1c[nH]c2ccsc2c1=O`: the Z-score is inactive: -0.498.

`O=C(N[C@H]1CN2CCC1CC2)c1ccc(Cl)cc1`: the Z-score was inactive: 0.572.

`O=[N+]([O-])c1ccc2nc(N3CCNCC3)ccc2c1` [Quipazine, 6-nitro-  , maleate]: the Z-score is inactive: -0.0405.

`N#Cc1ccc(N2CCN(C(=O)COc3ccc4[nH]cc(CCN)c4c3)CC2)cc1` [Donitriptan monohydrochlorid e]: the Z-score is inactive: -0.113. With `CC(C)[C@@H]1NC(=O)[C@H](C)OC(=O)[C@@H](C(C)C)NC(=O)[C@@H](C(C)C)OC(=O)[C@H](C(C)C)NC(=O)[C@H](C)OC(=O)[C@@H](C(C)C)NC(=O)[C@@H](C(C)C)OC(=O)[C@H](C(C)C)NC(=O)[C@H](C)OC(=O)[C@@H](C(C)C)NC(=O)[C@@H](C(C)C)OC1=O` [Valinomycin] the figure was inactive: -0.391. `CCCCCCC(=O)O[C@H]1CC[C@H]2[C@@H]3CCC4=CC(=O)CC[C@]4(C)[C@H]3CC[C@]12C` [Testosterone Enanthate]: the Z-score was inactive: -0.267.

As for `CC1=CC(=O)c2c(O)cccc2C1=O` [Plumbagin], the Z-score is inactive: -0.898. In the case of `CCN1C[C@]2(C)CC[C@H](OC)[C@@]34C1[C@]1(OCO[C@@]15C[C@H](OC)[C@H]1C[C@]3(O)[C@@H]5[C@H]1OC)[C@@H](OC(C)=O)[C@H]24` [Deltaline] it was inactive: -0.584. Take `CC(C)=CCOc1c2occc2cc2ccc(=O)oc12` [Imperatorin]: the Z-score was inactive: -0.563. Consider `N[C@@H](Cc1ccc(N(CCCl)CCCl)cc1)C(=O)O` [Melphalan], for which the Z-score was inactive: 0.222. Turning to `CC(Cc1ccc(OCC(=O)O)cc1)NCC(O)c1cccc(Cl)c1` (stereo not given), the Z-score is inactive: 3.6. With `CC[C@H]1CN2CCc3cc(OC)c(OC)cc3[C@@H]2C[C@@H]1C[C@H]1NCCc2cc(O)c(OC)cc21` [Cephaeline·HBr] the figure was inactive: -0.546. As to `C=CCN1C[C@H](C)N([C@H](c2ccc(C(=O)N(CC)CC)cc2)c2cccc(OC)c2)C[C@H]1C`, the Z-score is inactive: -0.275. Regarding `N=C(N)NN` [Aminoguanidine hydrochloride], the Z-score was inactive: -0.161. With `N=C(N)NN` [Aminoguanidine hemisulfate] the figure was inactive: 0.653; with `CC(C)N(CCC(C(N)=O)(c1ccccc1)c1ccccn1)C(C)C` (stereo not given) [Disopyramide phosphate], inactive: -0.0303.

Consider `CC(C)N(CCC(C(N)=O)(c1ccccc1)c1ccccn1)C(C)C` (stereo not given) [Disopyramide], for which the Z-score was inactive: 0.436. With `C[N+]1([O-])[C@@H]2CC(OC(=O)[C@H](CO)c3ccccc3)C[C@H]1[C@@H]1O[C@@H]12` (single isomer, unassigned; (-)) [(-)-Scopolamine N-oxide] the figure was inactive: 1.22; with `CN1[C@@H]2CC[C@H]1C[C@@H](OC(=O)[C@H](CO)c1ccccc1)C2` [Hyoscyamine], inactive: -0.746. With `CN1[C@@H]2CC[C@H]1C[C@@H](OC(=O)[C@H](CO)c1ccccc1)C2` [L-Hyoscyamine] the figure was inactive: -0.503; with `CN[C@@H]1C[C@@H](c2ccc(Cl)c(Cl)c2)c2ccccc21` [Indatraline hydrochloride], inactive: 0.448. With `O=[N+]([O-])c1cc(O)c(O)c([N+](=O)[O-])c1` [3,5-  Dinitrocatechol] the figure was inactive: -0.152; with `C[C@H]([C@H](O)CCC(C)(C)O)[C@H]1CC[C@@]2(O)C3=CC(=O)[C@@H]4C[C@@H](O)[C@@H](O)C[C@]4(C)[C@H]3CC[C@]12C` [Ecdysone], inactive: -0.789. On to `C#C[C@]1(O)CC[C@H]2[C@@H]3CCC4=Cc5nc6nc7ccccc7n6cc5C[C@]4(C)[C@H]3CC[C@@]21C`, for which the Z-score was inactive: -0.117. In the case of `NC(CCP(=O)(O)O)C(=O)O` (racemic) [(±)-2-Amino-4-  phosphonobutyric acid] it was inactive: -0.0685; in that of `O=C1C[C@@H]2OCC=C3CN4CC[C@]56c7ccccc7N1[C@H]5[C@H]2[C@H]3C[C@H]46` [Strychnine·HCl], inactive: -0.577; in that of `CC[C@@]1(O)C(=O)OCc2c1cc1n(c2=O)Cc2cc3ccccc3nc2-1` [(S)-(+)-  Camptothecin], inactive: 3.15. `N=C(N)c1ccc(CS(=O)(=O)F)cc1` [4-  Amidinophenylmetha nesulfonyl fluoride hydrochloride]: the Z-score was inactive: 0.329.

For the compound `O=C(O)CNC(=O)c1c(O)c2ccccc2n(Cc2ccccc2)c1=O`, the Z-score was active: -3.49.

Turning to `CC(CCc1ccccc1)NC(C)C(O)c1ccc(O)cc1` (stereo not given) [Nylidrin hydrochloride], the Z-score is inactive: -0.43. For `COc1cccc(C2(O)CCCCC2CN(C)C)c1` (stereo not given) [Tramadol·HCl], the Z-score is inactive: 0.134. For the compound `CN1C[C@H](C(=O)N[C@]2(C)O[C@@]3(O)[C@@H]4CCCN4C(=O)[C@H](Cc4ccccc4)N3C2=O)C[C@@H]2c3cccc4[nH]cc(c34)C[C@H]21` [Dihydroergotamine Mesylate], the Z-score is active: -2.4.

For `CN1C[C@H](C(=O)N[C@]2(C)O[C@@]3(O)[C@@H]4CCCN4C(=O)[C@H](Cc4ccccc4)N3C2=O)C[C@@H]2c3cccc4[nH]cc(c34)C[C@H]21` [Dihydro ergotamine methanesulfonate], the Z-score is inactive: -0.989.

Turning to `CC1C2Cc3ccc(O)cc3C1(C)CCN2CC1CC1` (single isomer, unassigned; (+)) [(+)-Cyclazocine], the Z-score was inactive: 0.0662. With `C[N+]1(C)[C@@H]2CC[C@H]1C[C@@H](OC(=O)C(CO)c1ccccc1)C2` (stereo not given in full) [Atropine methyl bromide] the figure was inactive: 0.463; with `C[N+]1(C)[C@@H]2CC[C@H]1C[C@@H](OC(=O)C(CO)c1ccccc1)C2` (stereo not given in full) [Atropine methyl nitrate], inactive: 0.0564.

As to `C/C=C1/C[C@@H](C)[C@@](C)(O)C(=O)OCC2=CCN3CC[C@@H](OC1=O)[C@@H]23` [Senecionine], the Z-score was inactive: 0.624. With `C[N+](C)(C)CCCCCCCCCC[N+](C)(C)C` [Decamethonium dibromide] the figure was inactive: 0.21. For the compound `CC1=C(O)C(=O)C=C2C1=CC=C1[C@@]2(C)CC[C@@]2(C)[C@@H]3C[C@](C)(C(=O)O)CC[C@]3(C)CC[C@]12C` [Celastrol], the Z-score is inactive: -1.18.
